The text below walks through data of the supplement of paper PMC8166895.

Each structure is given as a SMILES string. Where a name gives a salt, the structure may show the parent alone. The list shows a part of the results. Most entries show no effect beyond the scatter of the controls.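 Differential scanning fluorimetry gave melting temperatures in a one-replicate pilot screen of a library of approved drugs plus clinical or known-target compounds. Hits increasing melting point at least 2 °C were the strongest stabilizers, while negative shifts signify destabilization.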

The subject of this test is SARS-CoV-2 main protease (Mpro, nsp5). Description: thermal shift ΔTm of Mpro relative to plate average Tm; higher = stronger thermal stabilization of Mpro (binding). Conditions: 10 µM; protein concentration 1 µM.
For `COc1cc(OC)c2c(=O)[nH]c(-c3cc(C)c(OCCO)c(C)c3)nc2c1`, the “thermal shift ΔTm of Mpro” value was -0.175 °C. To `Cc1cc(OCCN2CCOCC2)nn1-c1ccc2ccccc2c1` [S1RA hydrochloride] belongs -0.0328 °C.

For the compound `CC(C)[C@H]1C(=O)N[C@@H](CCCNC(=N)N)C(=O)NCC(=O)N[C@@H](CC(=O)O)C(=O)N[C@H](Cc2ccccc2)C(=O)N1C` [Cilengitide], the “thermal shift ΔTm of Mpro” value is 0.0557 °C.

`O=C(c1cccc(Cl)c1F)N1CCN(Cc2cccc(Nc3nccs3)n2)CC1`: the “thermal shift ΔTm of Mpro” value was -0.0897 °C. To `NCCCC[C@H](N[C@@H](CCc1ccccc1)C(=O)O)C(=O)N1CCC[C@H]1C(=O)O` [Lisinopril dihydrate] belongs 0.0429 °C; to `COc1ccc2nc(/C=C/c3cccc([N+](=O)[O-])c3)n(-c3ccc(C(=O)O)cc3)c(=O)c2c1`, 0.0764 °C.

As for `CC(C)(C)NC[C@H](O)COc1nsnc1N1CCOCC1` [Timolol Maleate], the “thermal shift ΔTm of Mpro” value was -0.0873 °C. To `COc1ccccc1C(=O)Nc1cc2c(cc1N1CCCCC1)n(C)c(=O)n2C` belongs 0.0347 °C; to `O=C(Nc1cccc2c(=O)cc(-c3nnn[nH]3)oc12)c1ccc(OCCCCc2ccccc2)cc1` [Pranlukast], -0.0624 °C. For `Cn1cc(-c2ccc(F)c(C(F)(F)F)c2)nc1C1CCN(c2ncnc3[nH]ncc23)CC1`, the “thermal shift ΔTm of Mpro” value stood at 0.0762 °C. To `O=C(Nc1c[nH]nc1-c1nc2ccc(CN3CCOCC3)cc2[nH]1)NC1CC1` belongs 0.0849 °C.

In the case of `CCOC(=O)[C@H](CCc1ccccc1)N[C@H]1CCc2ccccc2N(CC(=O)O)C1=O` [Benazepril HCl], the “thermal shift ΔTm of Mpro” value was determined as 0.313 °C.

Turning to `Cc1nc(NC(=O)N2CCC[C@H]2C(N)=O)sc1-c1csc(C(C)(C)C)n1`, the “thermal shift ΔTm of Mpro” value was determined as 0.0538 °C. In the case of `COC1=C(OC)C(=O)C(CCCCCCCCCCO)=C(C)C1=O` [Idebenone] it was -0.117 °C.

For `CN(Cc1ccccc1)c1ccc2cc(C(=O)O)c(=O)oc2c1`, the “thermal shift ΔTm of Mpro” value is 0.012 °C.

Take `C[C@]12CC[C@H]3[C@@H](CC[C@@]45O[C@@H]4C(O)=C(C#N)C[C@]35C)[C@@H]1CC[C@@H]2O` [Trilostane]: the “thermal shift ΔTm of Mpro” value is 0.312 °C.

In the case of `CC1(C)Cc2c(sc(NC(=O)c3ccn[nH]3)c2C(N)=O)C(C)(C)O1`, the “thermal shift ΔTm of Mpro” value worked out at 0.154 °C. In the case of `C[C@@H]1C[C@H]2[C@@H]3CCC4=CC(=O)C=C[C@]4(C)[C@@]3(F)[C@@H](O)C[C@]2(C)[C@@]1(O)C(=O)CO` [Dexamethasone (DHAP)] it was 0.302 °C. To `OC1(c2ccc(Cl)c(C(F)(F)F)c2)CCN(CCCC(c2ccc(F)cc2)c2ccc(F)cc2)CC1` [Penfluridol] belongs 0.0125 °C; to `CC(C)Oc1ccc(C(=O)N[C@H](CNC(=O)CN(C)C)Cc2ccc(-c3cn4cccc([C@H](C)O)c4n3)cc2)cc1Cl`, -0.0365 °C; to `O=C(O)COC(=O)Cc1ccccc1Nc1c(Cl)cccc1Cl` [Aceclofenac], 0.0734 °C. To `Cc1cnc(NC(=O)C2=C(O)c3ccccc3S(=O)(=O)N2C)s1` [Meloxicam] belongs -0.00364 °C; to `CCCC(C)(C)c1ccc2c(c1)OC(C)(C)[C@@H]1CC=C(C)C[C@@H]21`, -0.056 °C; to `O=C(O)CCCc1ccccc1` [Sodium Phenylbutyrate], -0.153 °C. With `CC1(C)O[C@@H]2C[C@H]3[C@@H]4CCC5=CC(=O)C=C[C@]5(C)[C@@]4(F)[C@@H](O)C[C@]3(C)[C@]2(C(=O)CO)O1` [Triamcinolone Acetonide], the “thermal shift ΔTm of Mpro” value came to 0.0303 °C.

With `C[C@H]1CN(C[C@H](Cc2ccccc2)C(=O)NCC(=O)O)CC[C@@]1(C)c1cccc(O)c1` [Alvimopan], the “thermal shift ΔTm of Mpro” value is 0.134 °C.

As to `COc1ccccc1S(=O)(=O)Nc1ccc2c(c1)CN(C)C(=O)N2`, the “thermal shift ΔTm of Mpro” value turned out to be 0.327 °C.

Turning to `COc1ccccc1-n1c(SCC(=O)Nc2nc3ccc(C)cc3s2)nc2c(c1=O)SCC2`, the “thermal shift ΔTm of Mpro” value is -0.206 °C. To `COc1ccc(CCC(=O)N(c2nccc3ccccc23)[C@@H]2CCCNC2)cc1` belongs -0.117 °C. In the case of `C/C=C\c1cc(OC)c(OC)cc1OC` [beta-Asarone] it was -0.0645 °C.

As to `ClCC1C(CCl)[C@@]2(Cl)C(Cl)=C(Cl)[C@]1(Cl)C2(Cl)Cl` (some centres undefined) [Alodan], the “thermal shift ΔTm of Mpro” value is -0.365 °C. In the case of `Cc1nnc(NS(=O)(=O)c2ccc(N)cc2)s1` [Sulfamethizole] it was 0.158 °C; in that of `COc1cc(NS(C)(=O)=O)ccc1Nc1c2ccccc2nc2ccccc12` [Amsacrine], -0.151 °C; in that of `C[C@@H]1O[C@@H](O[C@H]2C[C@@H](O)[C@]3(CO)[C@H]4[C@H](O)C[C@]5(C)[C@@H](C6=CC(=O)OC6)CC[C@]5(O)[C@@H]4CC[C@]3(O)C2)[C@H](O)[C@H](O)[C@H]1O` [Ouabain], -0.0267 °C.

As for `CCN1CCN(c2cc3c(cc2F)c(=O)c(C(=O)O)cn3C2CC2)CC1` [Enrofloxacin], the “thermal shift ΔTm of Mpro” value was -0.00901 °C. On to `O=C1C2CC3CC1CC(O)(C3)C2` [Kemantane], for which the “thermal shift ΔTm of Mpro” value is -0.0428 °C. To `FC(F)c1nc2ccccc2n1-c1nc(N2CCOCC2)nc(N2CCOCC2)n1` belongs 0.0927 °C; to `Oc1ccc(OCc2ccccc2)cc1` [Monobenzone], -0.481 °C; to `Cc1cccc(COc2cccc(/C=C3\C(=O)NN(c4ccccc4)C3=O)c2)c1`, 0.155 °C. In the case of `C[C@H]1C[C@H]2[C@@H]3CCC4=CC(=O)C=C[C@]4(C)[C@@]3(F)[C@@H](O)C[C@]2(C)[C@@]1(O)C(=O)CO` [Betamethasone] it was 0.567 °C. On to `NCC(O)c1ccc(O)cc1` (racemic) [(+,-)-Octopamine HCl], for which the “thermal shift ΔTm of Mpro” value is -0.0441 °C.

As to `CNC(=O)[C@H](Cc1c[nH]c2ccccc12)NC(=O)[C@@H](CC(=O)NO)CC(C)C` [Ilomastat (GM6001, Galardin)], the “thermal shift ΔTm of Mpro” value is -0.107 °C. As for `C[C@H]1CC[C@H]2[C@H](C)[C@@H]3CC[C@@H]4[C@@H](C[C@H]5[C@H]4C[C@@H](O)[C@H]4C[C@@H](O)CC[C@@]45C)[C@@H]3CN2C1` [Hupehenine], the “thermal shift ΔTm of Mpro” value is 0.0374 °C. To `COc1cc(O)c2c(=O)cc(-c3ccccc3)oc2c1` [Tectochrysin] belongs -0.0805 °C; to `COc1cccc(/C=N/N(C(=O)C(F)(F)F)c2ccc(C)cc2C)c1`, 0.00901 °C. For `CCCN(CCC)C(=O)C1=Cc2ccc(-c3ccc(C(=O)N4CCCC4)cc3)cc2N=C(N)C1` [Motolimod], the “thermal shift ΔTm of Mpro” value is -0.252 °C. To `O=C(NCCO[N+](=O)[O-])c1cccnc1` [Nicorandil] belongs 0.181 °C; to `Cc1ccc(Cl)c(Nc2ccccc2C(=O)O)c1Cl` [Meclofenamate Sodium], -0.0425 °C; to `O=C(c1cn(Cc2cncn2Cc2ccc(Br)cc2)cc1-c1cccc2ccccc12)N1CCOCC1`, -0.558 °C.
